{"sequences": {"note": "By UniProt entry, the sequences of proteins in these tests, tags left out. Where a name states a change or a piece, a line headed by the entry shows the natural chain unless it says otherwise.", "UniProt Q9S9Z2": "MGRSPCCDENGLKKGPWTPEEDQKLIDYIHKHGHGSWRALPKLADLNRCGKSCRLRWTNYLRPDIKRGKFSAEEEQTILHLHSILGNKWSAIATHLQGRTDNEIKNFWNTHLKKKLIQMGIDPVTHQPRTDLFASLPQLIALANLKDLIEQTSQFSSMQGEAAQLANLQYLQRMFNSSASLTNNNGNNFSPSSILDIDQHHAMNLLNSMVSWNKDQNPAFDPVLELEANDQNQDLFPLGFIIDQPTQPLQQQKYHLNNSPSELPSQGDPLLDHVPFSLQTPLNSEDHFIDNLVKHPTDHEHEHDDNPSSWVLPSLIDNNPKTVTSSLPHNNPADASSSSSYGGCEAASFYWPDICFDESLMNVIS"}, "source": "paper PMC12921443", "biological_target": "T1, MITOGEN … PROTEIN KINASE 3 (MPK3), full-length (Arabidopsis) (UniProt Q39023)", "T1 sequence": "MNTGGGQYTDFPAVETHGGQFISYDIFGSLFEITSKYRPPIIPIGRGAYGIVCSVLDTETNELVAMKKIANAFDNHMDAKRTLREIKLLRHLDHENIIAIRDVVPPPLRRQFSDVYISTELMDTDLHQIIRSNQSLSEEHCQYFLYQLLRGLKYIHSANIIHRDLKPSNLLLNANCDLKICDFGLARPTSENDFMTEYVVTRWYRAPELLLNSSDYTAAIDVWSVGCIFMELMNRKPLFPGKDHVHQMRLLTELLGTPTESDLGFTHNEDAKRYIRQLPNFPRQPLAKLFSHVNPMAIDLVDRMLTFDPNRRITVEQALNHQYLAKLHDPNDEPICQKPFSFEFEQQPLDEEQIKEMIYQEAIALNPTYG", "assay": "two-hybrid; MYB93 constructs in pGADT7, MPK3 in pGBKT7; S. cerevisiae AH109; growth on SD -AHLW agar plates, 2-3 days at 30 °C; empty pGBKT7 as control", "note": "Results are given in words; binding and its absence hold for the method and conditions named. Binding can be weak; no strength is given."}
{"substance": "MYB93 N-terminal region (MYB93-R2R3) (from UniProt Q9S9Z2) (domain or fragment)", "values": [{"measurement": "binding", "result": "binds"}]}
